Among the data in PMC4669748 are binding values, retold here.

By UniProt entry, the sequences of proteins in these tests, tags left out.
UniProt P31749: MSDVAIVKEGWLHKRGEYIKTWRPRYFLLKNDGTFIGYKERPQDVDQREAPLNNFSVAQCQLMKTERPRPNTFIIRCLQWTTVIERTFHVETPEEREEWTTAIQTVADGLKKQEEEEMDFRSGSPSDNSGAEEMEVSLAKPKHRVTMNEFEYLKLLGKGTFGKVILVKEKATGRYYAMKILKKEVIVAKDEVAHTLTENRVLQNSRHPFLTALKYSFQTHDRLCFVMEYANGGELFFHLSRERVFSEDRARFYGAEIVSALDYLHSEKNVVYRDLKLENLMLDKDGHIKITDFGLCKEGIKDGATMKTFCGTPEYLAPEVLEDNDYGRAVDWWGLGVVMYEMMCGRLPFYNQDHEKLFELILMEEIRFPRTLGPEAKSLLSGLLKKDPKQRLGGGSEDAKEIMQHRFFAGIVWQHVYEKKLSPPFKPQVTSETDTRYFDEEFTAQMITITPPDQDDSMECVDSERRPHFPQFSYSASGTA

No constants are given. Whether binding was seen depends on the method and setting. For part of these data: Binding seen in cells or lysates may run through a third protein. Some binding calls cover weakened binding; strength is not graded here. For part of these data: Where a sequence is shown, tags or fusion partners need not be part of it.

Assay [1] concerns the target GST fused with full-length AKT (UniProt P31749). Kind of assay: pull-down; GST pull-down of His-tagged full-length BTG3 by GST-AKT with a 20 x molar excess of a synthetic peptide as competitor; both purified.
For assay [2] the target is unchanged. Description: pull-down; GST pull-down with purified recombinant His-BTG3 and GST or GST fused with full-length or truncated AKT; both purified.
In assay [3] the target is endogenous AKT (human (endogenous in 293T)) (UniProt P31749). Kind of assay: co-IP; endogenous proteins from 293 T lysates, immunoprecipitated with anti-BTG3 or anti-AKT (no. 610860; BD Biosciences) antibody.
Assay [4] deals with HA-tagged AKT (UniProt P31749). Kind of assay: co-IP; 293 T cells transfected with HA-AKT, with or without myc-BTG3; serum stimulation; PDK1 blotted in immunoprecipitated HA-AKT, or AKT in immunoprecipitated PDK1.
Assay [5] deals with HA-tagged AKT, P31749. The assay is described as above. The settings on record: remark: other sources report otherwise.

B1: His-tagged, full-length BTG3 protein (protein, UniProt Q14201 1-252)
chain: MKNEIAAVVFFFTRLVRKHDKLKKEAVERFAEKLTLILQEKYKNHWYPEKPSKGQAYRCIRVNKFQRVDPDVLKACENSCILYSDLGLPKELTLWVDPCEVCCRYGEKNNAFIVASFENKDENKDEISRKVTRALDKVTSDYHSGSSSSDEETSKEMEVKPSSVTAAASPVYQISELIFPPLPMWHPLPRKKPGMYRGNGHQNHYPPPVPFGYPNQGRKNKPYRPIPVTWVPPPGMHCDRNHWINPHMLAPH
Regarding B1, the binding entry in assay [1] and in assay [2] was “binds” in each case.

B2: endogenous BTG3 (protein, UniProt Q14201 1-252)
chain: B1 chain
B2: in assay [3], the binding result was “binds”.

B3: myc-tagged BTG3 (protein, UniProt Q14201 1-252)
chain: B1 chain
In the case of B3, the binding result in assay [4] is given as “binds”.

B4: PDK1 (phosphoinositide-dependent kinase-1), O15530 1-556 (protein)
chain: MARTTSQLYDAVPIQSSVVLCSCPSPSMVRTQTESSTPPGIPGGSRQGPAMDGTAAEPRPGAGSLQHAQPPPQPRKKRPEDFKFGKILGEGSFSTVVLARELATSREYAIKILEKRHIIKENKVPYVTRERDVMSRLDHPFFVKLYFTFQDDEKLYFGLSYAKNGELLKYIRKIGSFDETCTRFYTAEIVSALEYLHGKGIIHRDLKPENILLNEDMHIQITDFGTAKVLSPESKQARANSFVGTAQYVSPELLTEKSACKSSDLWALGCIIYQLVAGLPPFRAGNEYLIFQKIIKLEYDFPEKFFPKARDLVEKLLVLDATKRLGCEEMEGYGPLKAHPFFESVTWENLHQQTPPKLTAYLPAMSEDDEDCYGNYDNLLSQFGCMQVSSSSSSHSLSASDTGLPQRSGSNIEQYIHDLDSNSFELDLQFSEDEKRLLLEKQAGGNPWHQFVENNLILKMGPVDKRKGLFARRRQLLLTEGPHLYYVDPVNKVLKGEIPWSQELRPEAKNFKTFFVHTPNRTYYLMDPSGNAHKWCRKIQEVWRQRYQSHPDAAVQ
With B4, the binding entry in assay [5] is “binds”.

B5: C5-derived peptide spanning the C-terminal half of C5 (C5-C) (peptide, UniProt Q14201 241-252)
peptide: NHWINPHMLAPH
B5: in assay [1], the binding entry was “binds”.
